# The campaign covered roughly 400,000 compounds. About 5,500 (1.4%) were called active. The inconclusive results got no clear call from the source; some entries with a clear call stand among them for comparison. Calls come from the whole dose curve; as a rule, active = well fitted cell-killing curve with a large enough effect; inconclusive = small, poorly fitted or top-dose-only effect, or effect the other way; inactive = flat fitted curve, though single readings scatter. Potencies of inconclusive entries are doubtful fits and often do not repeat.
# Experiment: qHTS assay for MDR1-selective chemotherapeutics: Primary screen using the parental adenocarcinoma cell KB-3-1; note: nearly all actives have a fitted effect of over 60% in size
# Conditions: KB-3-1 viability, CellTiter-Glo ATP luminescence, 72 h; activity change, negative = cytotoxic: at 46.1 µM (top of the series)
# In short: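 Parental KB-3-1 viability, qHTS format: 72 h compound exposure, 37 °C; CellTiter-Glo; media-only wells and DMSO plates as controls; concentration-effect fits on corrected data.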
# % is set by controls: 0 for no effect and ±100 for the full control effect; potency is the fitted concentration of half-maximal effect.
SMILES,Potency,"activity change, negative = cytotoxic"
Cc1ccc(S(=O)(=O)NCCC(=O)NC2CCCCCC2)cc1C,inactive,–
COC(=O)c1[nH]c2ccc(C)cc2c1NC(=O)CN1CCCC(C)(C)C1,active: 20.6 µM,–
CN(C)/C=C(/C(=O)c1ccccc1Cl)S(C)(=O)=O,–,inconclusive: 1.4%
COc1ccc([N+](=O)[O-])cc1N(CC1CO1)S(=O)(=O)c1ccc(C)cc1 (centres undefined),"inconclusive: 32.6 µM [cytotoxic, single point]",–
CCOc1cc(/C=N/Nc2nn3cnnc3c3ccccc23)ccc1O,"inconclusive: 29.1 µM [cytotoxic, partial curve, poor fit]",–
Cc1c(NS(=O)(=O)c2ccc(C(C)(C)C)cc2)c(=O)n(-c2ccccc2)n1C,inactive,–
COc1ccccc1CN1CCC(CNC(=O)c2cnn(-c3cccc(Cl)c3)c2C2CCN(C(=O)OC(C)(C)C)CC2)CC1,inactive,–
CCCCN(Cc1ccco1)C(=O)c1cc2c(=O)[nH]c3ccc(C)cc3c2s1,inactive,–
Cc1cc2c(cc1S(=O)(=O)NCc1ccc(F)cc1)OCC(=O)N2,inactive,–
Cc1c(C(=O)NCCC2=CCCCC2)oc2ccc(S(=O)(=O)N3CCOCC3)cc12,"inconclusive: 29.1 µM [cytotoxic, single point]",–
CC(=O)Nc1ccc(-c2ccnc3c2CC(C(=O)NCc2cccc(Cl)c2)O3)cc1 (centres undefined),active: 3.26 µM,–
CN(CC1CCCN(CCc2cccc(C(F)(F)F)c2)C1)C(=O)c1cc2ccccc2o1 (centres undefined),inactive,–
CCCSc1ccc2nc(-c3ccccc3)cn2c1,active: 18.4 µM,–
CCOc1ccccc1NC(=O)c1ccc2c(c1)C(=O)N(C(C)(C)C)C2=O,"inconclusive: 29.1 µM [cytotoxic, single point]",–
Cc1cc(C)n(CC(=O)c2ccc(Cl)cc2)n1,inactive,–
CC(C)Oc1ccc(S(=O)(=O)N2CCCCC2)cc1NC(=O)CN1CCCC1c1cccs1 (centres undefined),"inconclusive: 32.6 µM [cytotoxic, partial curve, poor fit]",–
CC(=O)c1cccc(NC(=O)C(C)OC(=O)c2ccc(S(C)(=O)=O)c([N+](=O)[O-])c2)c1 (centres undefined),"inconclusive: 29.1 µM [cytotoxic, single point]",–
C/C(=C\C(=O)c1ccc(C)o1)Nc1ccc2c(c1)OCO2,inactive,–
Cc1ccc(NC(=O)c2ccc(S(=O)(=O)N(C)c3ccccc3)cc2)cc1S(=O)(=O)N1CCOCC1,"inconclusive: 29.1 µM [cytotoxic, single point]",–
COCc1cc(C)nc(OCC(=O)N/N=C/c2ccc(C)cc2)c1C#N,"inconclusive: 20.6 µM [cytotoxic, single point]",–
CCc1ccccc1NC(=S)N=Nc1c(O)n(C)c2ccc(S(=O)(=O)N3CCOCC3)cc12,"inconclusive: 7.31 µM [cytotoxic, partial curve]",–
CCOC(=O)c1cc2c(=O)n3ccccc3nc2n(CCOC)c1=NC(=O)c1c(-c2c(F)cccc2Cl)noc1C,"inconclusive: 23.1 µM [cytotoxic, single point]",–
Cc1ccc(-n2ncc3c(NC4CCCCC4)ncnc32)cc1C,inactive,–

SMILES,Potency,"activity change, negative = cytotoxic"
C/C(=N\NC(=O)c1ccc(Cl)cc1)c1ccc(Br)s1,"inconclusive: 7.31 µM [cytotoxic, partial curve, poor fit]",–
Oc1ccc(/C=N/Nc2ccc(C(F)(F)F)cn2)cc1O,"inconclusive: 32.6 µM [cytotoxic, single point]",–
CN(C)C(=O)c1ccc(N=Nc2c(O)c3ccccc3[nH]c2=O)cc1,inactive,–
Cc1cccc(NC(=O)c2onc3c2CCCC3)c1C,"inconclusive: 32.6 µM [cytotoxic, single point]",–
CC(=O)Nc1nc2ccccc2n1CCOc1ccccc1Cl,"inconclusive: 29.1 µM [cytotoxic, single point]",–
O=C(/C=C/c1ccncc1)c1ccc(NC(=O)c2ccccc2F)cc1,"inconclusive: 29.1 µM [cytotoxic, single point]",–
CN(C)CCNC(=O)C(=O)Nc1ccc2c(c1)N(S(=O)(=O)c1cccs1)CCC2,active: 6.51 µM,–
Cc1cccc(C(=O)N2CCN(Cc3nc4sc5c(c4c(=O)[nH]3)CCCC5)CC2)c1,"inconclusive: 0.82 µM [rising, full curve, poor fit]",–
Cc1nn(-c2ccccc2)c(N)c1C1(O)C(=O)N(C(C)C)c2ccccc21 (centres undefined),inactive,–
Cc1ccc(C)c(Cn2nnc(C(=O)Nc3ccc4c(c3)OCCO4)c2N)c1,"inconclusive: 29.1 µM [cytotoxic, single point]",–
COc1ccc(C(=O)NC2CCCc3c2cnn3-c2ccccc2F)cc1OC (centres undefined),"inconclusive: 16.4 µM [cytotoxic, single point]",–
O=S(=O)(NCC1CCCO1)c1ccccc1 (centres undefined),inactive,–
CNC(=O)c1c(NC(=O)C2=COCCO2)sc2c1CCC(C)C2 (centres undefined),"inconclusive: 7.31 µM [rising, partial curve, poor fit]",–
O=C(COc1ccc(Br)cc1Cl)NC1CCN(Cc2ccccc2)CC1,"inconclusive: 29.1 µM [cytotoxic, single point]",–
C[C@@H]1CN([C@H](C)CO)C(=O)c2c(c3ccccc3n2C)-c2ccccc2CO[C@@H]1CN(C)S(=O)(=O)c1cccs1,"inconclusive: 29.1 µM [cytotoxic, single point]",–
Cc1ccc(CNC(=O)C2CC(=O)N(c3ccc(OCC(=O)N4CCCC4)cc3)C2)cc1 (centres undefined),"inconclusive: 0.058 µM [rising, full curve]",–
CCc1cccc(NC(=O)CCn2nc(C)cc2C)c1,inactive,–
CCCc1c(-c2ccc(Cl)cc2)ncn1Cc1ccccc1OC,active: 16.4 µM,–
CCCCN(c1ccccc1)S(=O)(=O)c1cccc(C(=O)Nc2c(C)n(C)n(-c3ccccc3)c2=O)c1,active: 25.9 µM,–
CN1C=CC(C(C(N)=O)c2ccccc2)c2ccccc21 (centres undefined),inactive,–
c1ccc(Oc2ccc(-c3ccnc4nc(N5CCOCC5)nn34)cc2)cc1,inactive,–
COc1ccc(-c2[nH]ncc2CN(C)CCc2c(C)n[nH]c2C)c(F)c1,"inconclusive: 0.461 µM [rising, full curve, poor fit]",–
O=C1Nc2ccccc2/C1=C\c1cccn1-c1ccc(OC(F)(F)F)cc1,"inconclusive: 29.1 µM [cytotoxic, single point]",–

# As a short view, some entries already given.
SMILES,Potency,"activity change, negative = cytotoxic"
Cc1cc(C)n(CC(=O)c2ccc(Cl)cc2)n1,inactive,–
CC(C)Oc1ccc(S(=O)(=O)N2CCCCC2)cc1NC(=O)CN1CCCC1c1cccs1 (centres undefined),"inconclusive: 32.6 µM [cytotoxic, partial curve, poor fit]",–
CC(=O)c1cccc(NC(=O)C(C)OC(=O)c2ccc(S(C)(=O)=O)c([N+](=O)[O-])c2)c1 (centres undefined),"inconclusive: 29.1 µM [cytotoxic, single point]",–
C/C(=C\C(=O)c1ccc(C)o1)Nc1ccc2c(c1)OCO2,inactive,–
Cc1ccc(NC(=O)c2ccc(S(=O)(=O)N(C)c3ccccc3)cc2)cc1S(=O)(=O)N1CCOCC1,"inconclusive: 29.1 µM [cytotoxic, single point]",–
COCc1cc(C)nc(OCC(=O)N/N=C/c2ccc(C)cc2)c1C#N,"inconclusive: 20.6 µM [cytotoxic, single point]",–
CCc1ccccc1NC(=S)N=Nc1c(O)n(C)c2ccc(S(=O)(=O)N3CCOCC3)cc12,"inconclusive: 7.31 µM [cytotoxic, partial curve]",–
CCOC(=O)c1cc2c(=O)n3ccccc3nc2n(CCOC)c1=NC(=O)c1c(-c2c(F)cccc2Cl)noc1C,"inconclusive: 23.1 µM [cytotoxic, single point]",–
Cc1ccc(-n2ncc3c(NC4CCCCC4)ncnc32)cc1C,inactive,–
C/C(=N\NC(=O)c1ccc(Cl)cc1)c1ccc(Br)s1,"inconclusive: 7.31 µM [cytotoxic, partial curve, poor fit]",–
Oc1ccc(/C=N/Nc2ccc(C(F)(F)F)cn2)cc1O,"inconclusive: 32.6 µM [cytotoxic, single point]",–
CN(C)C(=O)c1ccc(N=Nc2c(O)c3ccccc3[nH]c2=O)cc1,inactive,–
Cc1cccc(NC(=O)c2onc3c2CCCC3)c1C,"inconclusive: 32.6 µM [cytotoxic, single point]",–
CC(=O)Nc1nc2ccccc2n1CCOc1ccccc1Cl,"inconclusive: 29.1 µM [cytotoxic, single point]",–
O=C(/C=C/c1ccncc1)c1ccc(NC(=O)c2ccccc2F)cc1,"inconclusive: 29.1 µM [cytotoxic, single point]",–
CN(C)CCNC(=O)C(=O)Nc1ccc2c(c1)N(S(=O)(=O)c1cccs1)CCC2,active: 6.51 µM,–
Cc1cccc(C(=O)N2CCN(Cc3nc4sc5c(c4c(=O)[nH]3)CCCC5)CC2)c1,"inconclusive: 0.82 µM [rising, full curve, poor fit]",–
Cc1nn(-c2ccccc2)c(N)c1C1(O)C(=O)N(C(C)C)c2ccccc21 (centres undefined),inactive,–
Cc1ccc(C)c(Cn2nnc(C(=O)Nc3ccc4c(c3)OCCO4)c2N)c1,"inconclusive: 29.1 µM [cytotoxic, single point]",–
COc1ccc(C(=O)NC2CCCc3c2cnn3-c2ccccc2F)cc1OC (centres undefined),"inconclusive: 16.4 µM [cytotoxic, single point]",–
O=S(=O)(NCC1CCCO1)c1ccccc1 (centres undefined),inactive,–

# The listing continues.

SMILES,Potency,"activity change, negative = cytotoxic"
COc1ccc(Cl)cc1NC(=O)CSc1nnc(COc2ccccc2)n1N,"inconclusive: 18.4 µM [rising, partial curve, poor fit]",–
CC(=O)c1ccc(Oc2ncnc(N)c2[N+](=O)[O-])cc1,"inconclusive: 18.4 µM [cytotoxic, single point]",–
CCN(CC)S(=O)(=O)c1ccc(N/N=C(\C)c2ccc(OC)cc2O)nc1,"inconclusive: 3.66 µM [cytotoxic, partial curve, poor fit]",–
O=C(Nc1nc(-c2ccccn2)cs1)C1CC(=O)N(c2ccc3c(c2)OCCO3)C1 (centres undefined),"inconclusive: 25.9 µM [cytotoxic, partial curve, poor fit]",–
Cc1cc(Cl)ccc1OCC(=O)NCC(c1cccs1)N1CCOCC1 (centres undefined),"inconclusive: 5.8 µM [cytotoxic, full curve]",–
CSc1ncc(C(=O)O)c(C)n1,"inconclusive: 1.46 µM [rising, partial curve]",–
COc1cccc(CNCc2c(C(=O)O)n(Cc3ccc(C)cc3)c3cc(C)ccc23)c1OC,"inconclusive: 18.4 µM [cytotoxic, single point]",–
O=C(Nc1nc(-c2ccccn2)cs1)c1cc2ccccc2o1,"inconclusive: 23.1 µM [cytotoxic, single point]",–
COC(=O)c1ccc[n+](CC(=O)c2ccc(Br)cc2)c1,"inconclusive: 13 µM [rising, partial curve, poor fit]",–
COc1ccccc1N1CCN(C(c2cccs2)C(C)NC(=O)C(=O)N2CCCCC2)CC1 (centres undefined),"inconclusive: 29.1 µM [cytotoxic, single point]",–
O=C(Cn1cc(S(=O)(=O)Cc2ccccc2F)c2ccccc21)Nc1ccc(F)c(Cl)c1,"inconclusive: 20.6 µM [cytotoxic, single point]",–
CC(=O)c1cc(F)ccc1OCC(=O)N1CCN(c2ccc(F)cc2)CC1,inactive,–
Cc1cc(C)cc(-c2nnc(SCC(=O)NCC3CCCO3)o2)c1 (centres undefined),inactive,–
COc1ccc2c(CNCc3ccco3)c(C(=O)O)n(Cc3cccc(F)c3)c2c1,"inconclusive: 29.1 µM [cytotoxic, single point]",–
COc1ccc(/C=C/c2nc(-c3ccccc3O)n(-c3ccccc3)n2)cc1,inactive,–
CC(C)=CCN1CCN(CC#Cc2ccccc2)CC1CCO (centres undefined),inactive,–
COc1cccc(C(=O)Nc2nc(-c3nnn(-c4cccc(Cl)c4C)c3C)ns2)c1,active: 14.6 µM,–
OCC1OC(n2cnc3c(NCc4ccccc4O)ncnc32)C(O)C1O (centres undefined),"inconclusive: 29.1 µM [cytotoxic, single point]",–
FC(F)(F)Oc1ccc(NC(=S)Nc2ccc(OC(F)(F)F)cc2)cc1,"inconclusive: 29.1 µM [cytotoxic, single point]",–
C/C(=N/O)c1ccc2c(c1)OCCOCCOc1cc(/C(C)=N/O)ccc1OCCOCCO2,–,inconclusive: -36.4%
COc1ccc(C(=O)Nc2ccccc2C(=O)N/N=C/c2cccc3ccccc23)cc1,"inconclusive: 23.1 µM [cytotoxic, single point]",–
COc1cccc(C2CC(c3ccccc3Cl)n3nnnc3N2)c1 (centres undefined),"inconclusive: 29.1 µM [cytotoxic, single point]",–
COc1ccc(Cl)cc1NC(=O)CN(C)C(=O)CN1C(=O)NC(C)(c2ccc3ccccc3c2)C1=O (centres undefined),active: 10.3 µM,–
